# According to the supplement of paper PMC8728848:
# The list shows a part of the results.
# B1: Epf (Streptococcus pyogenes) (protein)
# chain: GDHGPEFNGVMVVKAAEAEELPDDLMNFKGTWEVSADGSSGRFFSKGATDSYVFHLIPAKDVKKPGWREHNEVKDSYIKIDKQSIAARYKTSTTAPYSVAFKVNTKSLIKDHDYKITFEQGQIASGITVDYRIGSAFNKTTDDSFKISDESKYASNVKIEGEEQGFKQREQGDKTISFRTLKEGPMSLVLLSKVEKKPQGDLDVEFKNLKIIDVTNPSQLDKGVAYVGNKNVQLTLKSDDGRTNFEGDEISLFNSRGELLQTVTVTKDQQNPISITLSEDQAKSLKNKEKLKVSIKQKQSKKTSKDFFFEVGIDPKVEAKQKEKLLELDKVKKQIEDSINGDAWLPEKPVDLQGDHGLSAWSHPQFEK
# Experiments:
# Assay in all cases: glycan array binding signal (z-score within array); higher = stronger binding
# Conditions in all cases: glycan notation: IUPAC condensed, linker removed
# [1] = molecular target: Gal3S6S(b1-4)GlcNAc6S
# Procedure, shortened: (§1)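 Glycan array data came from 3228 arrays in the Consortium for Functional Glycomics database, and only arrays with an available protein sequence were kept. Glycan names were put into IUPAC-condensed notation, and columns mapping to the same glycan were averaged. The binding signal is a within-array Z-score, averaged across arrays of one protein sequence run at different concentrations or buffers and across linkers. A negative Z-score can be read as non-binding.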
# [2] = molecular target: Gal4S(b1-4)GlcNAc
# Procedure, shortened: as §1
# [3] = molecular target: Gal4S6S(b1-4)GlcNAc
# Procedure, shortened: as §1
# [4] = molecular target: Gal6P(b1-4)GlcNAc
# Procedure, shortened: as §1
# [5] = molecular target: Gal6S(b1-3)GlcNAc
# Procedure, shortened: as §1
# [6] = molecular target: Gal6S(b1-3)GlcNAc6S
# Procedure, shortened: as §1
# [7] = molecular target: Gal6S(b1-4)Glc
# Procedure, shortened: as §1
# [8] = molecular target: Gal6S(b1-4)Glc6S
# Procedure, shortened: as §1
# [9] = molecular target: Gal6S(b1-4)GlcNAc
# Procedure, shortened: as §1
# [10] = molecular target: Gal6S(b1-4)GlcNAc6S
# Procedure, shortened: as §1
# [11] = molecular target: GalNAc(a1-3)Gal
# Procedure, shortened: as §1
# [12] = molecular target: GalNAc(a1-3)GalNAc
# Procedure, shortened: as §1
# [13] = molecular target: GalNAc(a1-3)GalNAc(a1-3)Gal(a1-4)Gal(b1-4)GlcNAc
# Procedure, shortened: as §1
# [14] = molecular target: GalNAc(a1-3)GalNAc(b1-3)Gal(a1-4)Gal(b1-4)Glc
# Procedure, shortened: as §1
# [15] = molecular target: GalNAc(b1-3)Gal
# Procedure, shortened: as §1
# [16] = molecular target: GalNAc(b1-3)Gal(a1-4)Gal(b1-4)GlcNAc
# Procedure, shortened: as §1
# [17] = molecular target: GalNAc(b1-3)Gal(a1-4)Gal(b1-4)GlcNAc(b1-3)Gal(b1-4)Glc
# Procedure, shortened: as §1
# [18] = molecular target: GalNAc(b1-3)Gal(a1-6)Gal(b1-4)Glc
# Procedure, shortened: as §1
# [19] = molecular target: GalNAc(b1-3)GalNAc
# Procedure, shortened: as §1
# [20] = molecular target: GalNAc(b1-3)GlcNAc
# Procedure, shortened: as §1
# [21] = molecular target: GalNAc(b1-4)Gal(b1-4)Glc
# Procedure, shortened: as §1
# [22] = molecular target: GalNAc(b1-4)GlcNAc
# Procedure, shortened: as §1
# [23] = molecular target: GalNAc(b1-4)GlcNAc(b1-2)Man
# Procedure, shortened: as §1
# [24] = molecular target: GalNAc(b1-4)GlcNAc(b1-2)Man(a1-3)[GalNAc(b1-4)GlcNAc(b1-2)Man(a1-6)]Man(b1-4)GlcNAc(b1-4)GlcNAc
# Procedure, shortened: as §1
# [25] = molecular target: GalNAc(b1-4)GlcNAc(b1-3)GalNAc(b1-4)GlcNAc
# Procedure, shortened: as §1
# [26] = molecular target: GalNAc(b1-4)GlcNAc6S
# Procedure, shortened: as §1
# [27] = molecular target: GalNAc(b1-6)GalNAc
# Procedure, shortened: as §1
# [28] = molecular target: GalNAc3S(b1-4)GlcNAc
# Procedure, shortened: as §1
# [29] = molecular target: GalNAc3S(b1-4)GlcNAc3S
# Procedure, shortened: as §1
# [30] = molecular target: GalNAc3S(b1-4)[Fuc(a1-3)]GlcNAc
# Procedure, shortened: as §1
# [31] = molecular target: GalNAc4S6S(b1-4)GlcNAc
# Procedure, shortened: as §1
# [32] = molecular target: GalNAc6S(b1-4)GlcNAc
# Procedure, shortened: as §1
# [33] = molecular target: Glc(a1-4)Glc
# Procedure, shortened: as §1
# [34] = molecular target: Glc(a1-4)Glc(a1-4)Glc(a1-4)Glc
# Procedure, shortened: as §1
# [35] = molecular target: Glc(a1-6)Glc(a1-6)Glc
# Procedure, shortened: as §1
# [36] = molecular target: Glc(a1-6)Glc(a1-6)Glc(a1-6)Glc
# Procedure, shortened: as §1
# [37] = molecular target: Glc(b1-4)Glc
# Procedure, shortened: as §1
# [38] = molecular target: Glc(b1-6)Glc
# Procedure, shortened: as §1
binder,measurement,setting,value
B1,glycan array binding signal (z-score),[1],0.334
same,glycan array binding signal (z-score),[2],-0.783
same,glycan array binding signal (z-score),[3],-0.669
same,glycan array binding signal (z-score),[4],0.72
same,glycan array binding signal (z-score),[5],-0.499
same,glycan array binding signal (z-score),[6],-1.31
same,glycan array binding signal (z-score),[7],0.285
same,glycan array binding signal (z-score),[8],-1.45
same,glycan array binding signal (z-score),[9],-1.32
same,glycan array binding signal (z-score),[10],2.34
same,glycan array binding signal (z-score),[11],-1.32
same,glycan array binding signal (z-score),[12],-1.64
same,glycan array binding signal (z-score),[13],0.701
same,glycan array binding signal (z-score),[14],0.674
same,glycan array binding signal (z-score),[15],0.886
same,glycan array binding signal (z-score),[16],0.386
same,glycan array binding signal (z-score),[17],-0.002
same,glycan array binding signal (z-score),[18],-1.66
same,glycan array binding signal (z-score),[19],-1.32
same,glycan array binding signal (z-score),[20],-0.448
same,glycan array binding signal (z-score),[21],-0.265
same,glycan array binding signal (z-score),[22],-0.003
same,glycan array binding signal (z-score),[23],-0.678
same,glycan array binding signal (z-score),[24],0.105
same,glycan array binding signal (z-score),[25],-0.662
same,glycan array binding signal (z-score),[26],-1.36
same,glycan array binding signal (z-score),[27],1.99
same,glycan array binding signal (z-score),[28],0.725
same,glycan array binding signal (z-score),[29],-1.41
same,glycan array binding signal (z-score),[30],0.629
same,glycan array binding signal (z-score),[31],0.618
same,glycan array binding signal (z-score),[32],-0.071
same,glycan array binding signal (z-score),[33],-0.862
same,glycan array binding signal (z-score),[34],-0.119
same,glycan array binding signal (z-score),[35],-0.575
same,glycan array binding signal (z-score),[36],0
same,glycan array binding signal (z-score),[37],0.621
same,glycan array binding signal (z-score),[38],-0.212

# Part of the list above, with tabs:
binder	measurement	setting	value
B1	glycan array binding signal (z-score)	[25]	-0.662
same	glycan array binding signal (z-score)	[26]	-1.36
